The results in this text go back to publication PMC9405969.

Amino acid sequences for entries named in this document (tags omitted). A change or cut given only in a name is not applied to a line headed by its entry.
UniProt Q07666: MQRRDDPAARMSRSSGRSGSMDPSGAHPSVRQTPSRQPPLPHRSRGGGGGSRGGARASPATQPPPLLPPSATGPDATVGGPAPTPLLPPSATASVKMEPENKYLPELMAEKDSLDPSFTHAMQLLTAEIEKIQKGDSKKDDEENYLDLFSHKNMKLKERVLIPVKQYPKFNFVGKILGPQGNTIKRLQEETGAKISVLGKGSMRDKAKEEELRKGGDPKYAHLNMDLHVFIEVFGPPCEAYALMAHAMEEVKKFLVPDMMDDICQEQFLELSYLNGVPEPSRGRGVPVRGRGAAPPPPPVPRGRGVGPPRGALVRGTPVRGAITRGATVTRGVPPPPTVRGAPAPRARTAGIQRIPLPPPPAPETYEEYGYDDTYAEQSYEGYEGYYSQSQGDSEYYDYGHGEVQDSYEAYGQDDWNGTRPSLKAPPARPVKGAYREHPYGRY
UniProt P09874: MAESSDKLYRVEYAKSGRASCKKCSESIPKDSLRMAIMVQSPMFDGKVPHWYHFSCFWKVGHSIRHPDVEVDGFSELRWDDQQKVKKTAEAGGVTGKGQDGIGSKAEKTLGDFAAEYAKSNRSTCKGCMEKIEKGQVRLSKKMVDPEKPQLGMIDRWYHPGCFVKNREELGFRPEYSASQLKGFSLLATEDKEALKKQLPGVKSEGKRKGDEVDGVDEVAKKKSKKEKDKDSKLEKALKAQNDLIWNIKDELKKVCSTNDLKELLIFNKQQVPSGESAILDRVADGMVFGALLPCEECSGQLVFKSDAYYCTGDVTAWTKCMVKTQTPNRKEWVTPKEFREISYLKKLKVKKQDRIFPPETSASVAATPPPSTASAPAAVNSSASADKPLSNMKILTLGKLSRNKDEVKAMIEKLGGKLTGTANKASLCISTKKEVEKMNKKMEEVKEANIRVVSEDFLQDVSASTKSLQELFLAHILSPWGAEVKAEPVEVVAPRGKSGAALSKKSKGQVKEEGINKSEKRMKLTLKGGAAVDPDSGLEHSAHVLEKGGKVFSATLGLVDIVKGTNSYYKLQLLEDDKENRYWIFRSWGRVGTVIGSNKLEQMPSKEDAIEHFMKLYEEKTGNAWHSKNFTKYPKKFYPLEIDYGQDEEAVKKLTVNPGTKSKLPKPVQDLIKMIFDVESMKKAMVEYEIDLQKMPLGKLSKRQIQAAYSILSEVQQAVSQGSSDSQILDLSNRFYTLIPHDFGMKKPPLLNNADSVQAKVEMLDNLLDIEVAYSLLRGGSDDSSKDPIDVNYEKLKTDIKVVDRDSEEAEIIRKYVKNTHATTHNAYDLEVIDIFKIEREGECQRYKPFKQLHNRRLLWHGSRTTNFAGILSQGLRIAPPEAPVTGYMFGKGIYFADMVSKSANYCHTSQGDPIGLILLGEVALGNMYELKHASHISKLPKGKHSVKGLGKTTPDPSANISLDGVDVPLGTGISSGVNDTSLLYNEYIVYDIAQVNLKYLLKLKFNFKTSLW

These are yes or no findings as the source states them, for the method shown. In cells and extracts the contact can be indirect. Some results given as binding are weak or reduced against the parent protein; the word gives no strength.

Test [1] deals with GFP-Sam68 wild type (Src-associated in mitosis of 68 KDa protein) (human) (UniProt Q07666). In words: co-IP; HEK293T whole-cell lysates expressing GFP-Sam68 wild type or mutants; IP with anti-GFP, immunoblot for endogenous partners; cells treated or not with NCS 500 ng/mL and collected at different time points. In general terms: In western blotting, separated proteins are transferred to a membrane and probed.

The target in test [2] is GFP-Sam68 S388A/S390A (human) (UniProt Q07666). The test is described as above.

On to “endogenous PARP1 (HEK293T cells) (from UniProt P09874 1-1014) (enzyme)”, for which the binding result in test [1] and in test [2] was “binds” throughout.
